{"source": "PubChem BioAssay AID504744 (Drosophila RNAi Screening Center, 2011)", "assay": "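Find genes whose loss alters insulin-driven dAkt phosphorylation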 (primary screen)", "system": "Drosophila Kc167 cells", "reagents": "long dsRNA against Drosophila genes, 250 ng dsRNA per well of a 384-well plate", "time to read-out": "3 days of knock-down, then overnight serum-free starvation before stimulation", "challenge": "bovine insulin at 387 nM for 10 minutes after 12 h without serum", "measured": "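In-cell antibody fluorescence for phospho-dAkt in each well over DNA-dye signal, with log2 residuals expressed as z-scores adjusted for cell count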", "hit rule": "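Hit in the insulin screen when the two-replicate mean z-score is more extreme than plus or minus 2.5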", "note": "The deposit covers about 23,000 reagents; this is an unselected part of those with a known target gene and a result. Of all reagents, 98 (0.43%) got an active call. 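Only hit calls are given; the phospho-dAkt signals, z-scores and hit direction were not deposited.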 Names joined by + are all predicted targets of the reagent."}
{"Gene": "Cpr67Fb", "PubChem SID": "SID104190106", "call": "inactive"}
{"Gene": "Uev1A", "PubChem SID": "SID104189555", "call": "inactive"}
{"Gene": "CG14830", "PubChem SID": "SID104188668", "call": "inactive"}
{"Gene": "CG14830", "PubChem SID": "SID104189992", "call": "inactive"}
{"Gene": "loh", "PubChem SID": "SID104180914", "call": "inactive"}
{"Gene": "loh", "PubChem SID": "SID104182735", "call": "inactive"}
{"Gene": "aub", "PubChem SID": "SID104183278", "call": "inactive"}
{"Gene": "CG15865", "PubChem SID": "SID104199525", "call": "inactive"}
{"Gene": "Idgf1", "PubChem SID": "SID104183141", "call": "inactive"}
{"Gene": "DUBAI + Tmem18", "PubChem SID": "SID104185136", "call": "inactive"}
{"Gene": "CG15357", "PubChem SID": "SID104180179", "call": "inactive"}
{"Gene": "Def", "PubChem SID": "SID104187190", "call": "inactive"}
{"Gene": "CG9689", "PubChem SID": "SID104198232", "call": "inactive"}
{"Gene": "TBPH", "PubChem SID": "SID104184452", "call": "inactive"}
{"Gene": "olf186-M", "PubChem SID": "SID104187449", "call": "inactive"}
{"Gene": "CG31157", "PubChem SID": "SID104201480", "call": "inactive"}
{"Gene": "RFeSP", "PubChem SID": "SID104180494", "call": "inactive"}
{"Gene": "eIF6", "PubChem SID": "SID104184466", "call": "inactive"}
{"Gene": "Rbp1-like", "PubChem SID": "SID104199620", "call": "inactive"}
{"Gene": "Rbp1-like", "PubChem SID": "SID104201649", "call": "inactive"}
{"Gene": "Cds", "PubChem SID": "SID104190730", "call": "inactive"}
{"Gene": "klg", "PubChem SID": "SID104193383", "call": "inactive"}
{"Gene": "klg", "PubChem SID": "SID104196770", "call": "inactive"}
{"Gene": "CG5439", "PubChem SID": "SID104182653", "call": "inactive"}
{"Gene": "CG11029", "PubChem SID": "SID104181911", "call": "inactive"}
{"Gene": "CG7298", "PubChem SID": "SID104190594", "call": "inactive"}
{"Gene": "CG8366", "PubChem SID": "SID104186945", "call": "inactive"}
{"Gene": "CG13733", "PubChem SID": "SID104189853", "call": "inactive"}
{"Gene": "CG34417", "PubChem SID": "SID104197259", "call": "inactive"}
{"Gene": "CG34417", "PubChem SID": "SID104198124", "call": "inactive"}
{"Gene": "CG34417", "PubChem SID": "SID104198125", "call": "inactive"}
{"Gene": "vn", "PubChem SID": "SID104191200", "call": "inactive"}
{"Gene": "Cyp6t1", "PubChem SID": "SID104200356", "call": "inactive"}

Reformatted: 9 of the entries above
{"Gene":"olf186-M","PubChem SID":"SID104187449","call":"inactive"}
{"Gene":"CG31157","PubChem SID":"SID104201480","call":"inactive"}
{"Gene":"RFeSP","PubChem SID":"SID104180494","call":"inactive"}
{"Gene":"eIF6","PubChem SID":"SID104184466","call":"inactive"}
{"Gene":"Rbp1-like","PubChem SID":"SID104199620","call":"inactive"}
{"Gene":"Rbp1-like","PubChem SID":"SID104201649","call":"inactive"}
{"Gene":"Cds","PubChem SID":"SID104190730","call":"inactive"}
{"Gene":"klg","PubChem SID":"SID104193383","call":"inactive"}
{"Gene":"klg","PubChem SID":"SID104196770","call":"inactive"}

The results go on.
{"Gene": "lawc (retired record)", "PubChem SID": "SID104201972", "call": "inactive"}
{"Gene": "CG34267", "PubChem SID": "SID104187673", "call": "inactive"}
{"Gene": "meigo", "PubChem SID": "SID104195669", "call": "inactive"}
{"Gene": "CG7377", "PubChem SID": "SID104190622", "call": "inactive"}
{"Gene": "l(2)37Bb", "PubChem SID": "SID104181880", "call": "inactive"}
{"Gene": "Dscam1", "PubChem SID": "SID104184839", "call": "inactive"}
{"Gene": "Dscam1", "PubChem SID": "SID104184840", "call": "inactive"}
{"Gene": "Dscam1", "PubChem SID": "SID104187199", "call": "inactive"}
{"Gene": "Dscam1", "PubChem SID": "SID104201275", "call": "inactive"}
{"Gene": "Dscam1", "PubChem SID": "SID104201862", "call": "inactive"}
{"Gene": "BckdhA", "PubChem SID": "SID104196187", "call": "inactive"}
{"Gene": "snoRNA:Me28S-A982b + Uhg4 + snoRNA:Me28S-G3255a + 1 more", "PubChem SID": "SID104184935", "call": "inactive"}
{"Gene": "spn-A", "PubChem SID": "SID104196604", "call": "inactive"}
{"Gene": "RpS28b", "PubChem SID": "SID104198050", "call": "inactive"}
{"Gene": "Pis", "PubChem SID": "SID104199970", "call": "inactive"}
{"Gene": "PIG-Wa", "PubChem SID": "SID104180520", "call": "inactive"}
{"Gene": "CG14151", "PubChem SID": "SID104189945", "call": "inactive"}
{"Gene": "ftz-f1", "PubChem SID": "SID104191139", "call": "inactive"}
{"Gene": "CG3156", "PubChem SID": "SID104198295", "call": "inactive"}
{"Gene": "CG18368", "PubChem SID": "SID104186523", "call": "inactive"}
{"Gene": "CG33337", "PubChem SID": "SID104193424", "call": "inactive"}
{"Gene": "CG2736", "PubChem SID": "SID104184106", "call": "inactive"}
{"Gene": "Tollo", "PubChem SID": "SID104191097", "call": "inactive"}
{"Gene": "RpL22-like", "PubChem SID": "SID104184374", "call": "inactive"}
